Measured values published in the RNAGym collection of RNA variant scans (doi:10.1126/science.aae0568).
This sample is rich in variants without activity.

B1: tRNA (parent)
chain: GUUCCGUUGGCGUAAUGGUAACGCGUCUCCCUCCUAAGGAGAAGACUGCGGGUUCGAGUCCCGUACGGAACG

Variants of: B1
Experiment: yeast fitness relative to wild type (ratio to wild type); higher = fitter; tRNA-Arg(CCU), competitive growth, 37 C, YPD
Method in brief: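 Genotype frequency changes were the basis for Darwinian fitness relative to wild type. The frequencies came from 100-nucleotide paired-end sequencing of gene amplicons from the start population and each end population of pooled yeast strains with tRNA-Arg(CCU) gene variants at the native locus. Competition ran in YPD at 37°C for 24 hours in six replicates, genotypes needed ≥ 100 starting reads, and estimates < 0.5 were set to 0.5.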

Variant | yeast fitness
U8A A15U C27G A36G A70C | ≤ 0.5
U8A A15U C29G G41A C49G A57G | ≤ 0.5
U8A A20G C29U G51C | ≤ 0.5
U8A A20U G63C C66G | ≤ 0.5
U8A A40C G44A | ≤ 0.5
U8A A40U A70U | ≤ 0.5
U8A A42C G51A C61U | ≤ 0.5
U8A A42U C62G | ≤ 0.5
U8A A45U G50C | ≤ 0.5
U8A C11A C24A C29A C34U C61G A65C | ≤ 0.5
U8A C22U A69C A70C | 0.595
U8A C24A C30U C31U G48C | 0.58
U8A C24G C31G C61G | ≤ 0.5
U8A C24U U28C A40C | ≤ 0.5
U8A C27A A37U A57U | ≤ 0.5
U8A C27A A37U C62G | ≤ 0.5
U8A C27U C31G C55G | ≤ 0.5
U8A C29G A40G G63A | ≤ 0.5
U8A C30A U32C | ≤ 0.5
U8A C30G C55G A69U | ≤ 0.5
U8A C30G C62U | ≤ 0.5
U8A C34G A65U C66A | ≤ 0.5
U8A C34U C49A G56C C62A A65C | ≤ 0.5
U8A G9A A36C A43U C61U G68A | ≤ 0.5

Variant | yeast fitness
U8A G12A A14C | ≤ 0.5
U8A G17A C22U | 0.607
U8A G18A A20G C30A U32A U35G G67A | ≤ 0.5
U8A G18A C30A U32A U35G A57G C61G C62A | ≤ 0.5
U8A G18A C30A U32A U35G C66A | ≤ 0.5
U8A G18A C30A U32A U35G U59A G67C | ≤ 0.5
U8A G18C C24A U32C C49U | ≤ 0.5
U8A G18C C24A U32C C49U G52C | ≤ 0.5
U8A G38C C61U | ≤ 0.5
U8A G38C G48A | ≤ 0.5
U8A G44A U64C C66A | ≤ 0.5
U8A G44C C61U | ≤ 0.5
U8A G51C G58A | ≤ 0.5
U8A U16A C27G C33A | ≤ 0.5
U8A U16G C31U C34A A37U G41C G48A C49U | ≤ 0.5
U8A U19G C22U G58A | 0.568
U8A U32G A37G | ≤ 0.5
U8A U54C | 0.657
U8C A14G A45C | ≤ 0.5
U8C A15C A20U A65U | ≤ 0.5
U8C A15U U16A U26A U54C | ≤ 0.5
U8C A20U C33A C66A | ≤ 0.5
U8C A21U U32A C55G | 0.517
U8C A36C A37G C49A | ≤ 0.5

Variant | yeast fitness
U8C A36U | 0.647
U8C A42U C62A C66U | ≤ 0.5
U8C A45U U59C | 0.57
U8C C11G | 0.686
U8C C11G C66G | ≤ 0.5
U8C C22G G39A A42U A57C | ≤ 0.5
U8C C22U G56A G68C | ≤ 0.5
U8C C24A | 0.616
U8C C24A U35G G52A U64A | ≤ 0.5
U8C C27G A36G | ≤ 0.5
U8C C27G U64G A65G | ≤ 0.5
U8C C27U A40G G44A C62A | ≤ 0.5
U8C C27U C34G A69C | ≤ 0.5
U8C C29A C34G A36G A37G A40C U47A U64C | ≤ 0.5
U8C C29U G50C A70G | ≤ 0.5
U8C C30U U59C A69C | ≤ 0.5
U8C C31G G51A G68C | ≤ 0.5
U8C C31G U53A | ≤ 0.5
U8C C34G A36G | ≤ 0.5
U8C C46U G51C A69U | ≤ 0.5
U8C G9A A37C A43C U59A A69G | ≤ 0.5
U8C G12A A65G | 0.615
U8C G12A C31U G52A G56C | ≤ 0.5
U8C G12A C34U C66U | ≤ 0.5

Variant | yeast fitness
U8C G17A | 0.711
U8C G17A A20C C24U C61U | ≤ 0.5
U8C G17A G41C U64A A65C | ≤ 0.5
U8C G23U A42G C60A | ≤ 0.5
U8C G39C U47C C60A C61G A69U | ≤ 0.5
U8C U13C G25A C27A G39C G68C | ≤ 0.5
U8C U13G C22U A36U | ≤ 0.5
U8C U13G C22U A70G | ≤ 0.5
U8C U13G C30A A70U | ≤ 0.5
U8C U16C C29U G38C A40C | ≤ 0.5
U8C U19C | 0.978
U8C U26A A43U A70U | 0.675
U8C U26A U53A | ≤ 0.5
U8C U26G C33G U35A C62A | ≤ 0.5
U8G A14U G23U G68C | ≤ 0.5
U8G A15G C24U C29G A45C | ≤ 0.5
U8G A20C U35C C49A G67A | ≤ 0.5
U8G A21C G56C | 0.766
U8G A37U A57U C60G G68C | ≤ 0.5
U8G A43C C60G A65C | ≤ 0.5
U8G C11G C34A G58C | ≤ 0.5
U8G C11U G48A C66G | ≤ 0.5
U8G C24G C61G | ≤ 0.5
U8G C29A | ≤ 0.5

Variant | yeast fitness
U8G C31G A42C | ≤ 0.5
U8G C62G | 0.533
U8G G12A A37C A43U C66A A70C | 0.597
U8G G18C C22U C29U C46A C55G U64A | ≤ 0.5
U8G G41A C60G | ≤ 0.5
U8G U16C A21U C22A U28G A65C | ≤ 0.5
U8G U26A A43C C55G C60A | ≤ 0.5
U8G U28A C29G G51A G56A G67C | ≤ 0.5
U8G U32A C33G C61U C62U | ≤ 0.5
G9A A14C C22G U54C | ≤ 0.5
G9A A14C C55U | ≤ 0.5
G9A A14C G25C G56A C66U | ≤ 0.5
G9A A15U A20G G39C C60U A69C | ≤ 0.5
G9A A15U C31G U53A C55U A57C C60G G67C | ≤ 0.5
G9A A15U C33G G39A G67C | ≤ 0.5
G9A A20G C27G A40G | ≤ 0.5
G9A A21G A40G U53A A70G | ≤ 0.5
G9A A21U C24G U28A | ≤ 0.5
G9A A37C A43C U59A A69G | ≤ 0.5
G9A A37G C60G | ≤ 0.5
G9A A40C G67U | ≤ 0.5
G9A A40U | 1.06
G9A C11A A20U G23A G51A | ≤ 0.5
G9A C11A A36C A45U | ≤ 0.5

Variant | yeast fitness
G9A C11A C34G A36G A70C | ≤ 0.5
G9A C11A G58C | ≤ 0.5
G9A C11G U47C C55U G68C | ≤ 0.5
G9A C22A U28A C62U C66A | ≤ 0.5
G9A C22U C30A C49A U54C C55A C62U C66U | ≤ 0.5
G9A C22U C62A | ≤ 0.5
G9A C24U A40U A57C | ≤ 0.5
G9A C24U A40U G56A G67C | ≤ 0.5
G9A C29A A36U | ≤ 0.5
G9A C29U C33U U59A A70C | ≤ 0.5
G9A C30A G38A A42C U53A C62G | ≤ 0.5
G9A C31G C34U A57G | ≤ 0.5
G9A C31U A37C G63A | ≤ 0.5
G9A C33U C34G | ≤ 0.5
G9A C34A A40G A65C | ≤ 0.5
G9A C34G C66A | ≤ 0.5
G9A C34G G38C | ≤ 0.5
G9A C49A A57U | ≤ 0.5
G9A C61U | 0.949
G9A C66G | 0.703
G9A G10A C24A G44A | ≤ 0.5
G9A G10A C31G G52A C62A | ≤ 0.5
G9A G10A C55A A65U G67C | 0.506
G9A G10A U54A | ≤ 0.5

Variant | yeast fitness
G9A G10C G25C C33U C62A C66U | ≤ 0.5
G9A G12C A65G G67C A69G | ≤ 0.5
G9A G12C G17A C22G C30G G51C A57U | ≤ 0.5
G9A G12C G17A C22G C30U C34G C49U U59G | ≤ 0.5
G9A G17C A45U A65U A69C | ≤ 0.5
G9A G25A A43G | ≤ 0.5
G9A G39C A42C | ≤ 0.5
G9A G44A C46U A69C | 0.787
G9A G51A C60U G67A | 0.588
G9A G56A A70C | 1.03
G9A U13A | 1.03
G9A U13C C24G C34G | ≤ 0.5
G9A U16A C34A G50C | ≤ 0.5
G9A U16A G25C A42G C46G | ≤ 0.5
G9A U16G U19C G25A U28C U54G A70C | ≤ 0.5
G9A U26A A43U A65C | ≤ 0.5
G9A U26A A43U U64C A65U | ≤ 0.5
G9A U28C G44A G51C G58C | 0.51
G9A U53A A70G | ≤ 0.5
G9C A14C C29A | ≤ 0.5
G9C A14G A65U C66A | ≤ 0.5
G9C A15C A69U | ≤ 0.5
G9C A15C C34G C55A C66A A69C | ≤ 0.5
